PubChem BioAssay AID686937 – Drosophila RNAi Screening Center, 2013
The deposit covers about 23,000 reagents; this is an unselected part of those that have a named target and a result. 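Reduced-secretion tags in replicate 1 do not always agree with the z-scores; no criterion for assigning the tags was given.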 A plus sign joins genes that one reagent is predicted to hit. No sequences are given here. Not stated in the record: the amount of reagent.

- Test: 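Knock-downs that reduce output of a secreted reporter enzyme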 (primary screen)
- Cell system: Drosophila S2 cells expressing secreted horseradish peroxidase
- Reagent: long dsRNA against Drosophila genes
- Duration: about 5.5 days (5 days dsRNA, then 12 h reporter induction)
- Challenge: reporter expression induced after 5 days of dsRNA, read 12 h later; inducer not stated
- Measurement: 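After 5 days of dsRNA and 12 h of reporter induction, medium peroxidase read by chemiluminescence and scored as per-plate z-score; higher values mean more reporter released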
- Direction: z-score: higher = more reporter secreted into medium

no.	Target gene	amplicon	z-score, replicate 1	z-score, replicate 2	z-score, replicate 3	z-score, replicate 4	phenotype, replicate 1
1	CG32189	DRSC09511	0.58	0.37			
2	Ugt303A1	DRSC15641	0.43	0.1			
3	CG43153	DRSC01189	0.54	-0.27			
4	ovm + CG31975	DRSC22146	0.7	0.52			
5	Fad2	DRSC11165	-4.18	-4.85			reduced secretion
6	CG14147	DRSC10149	0.22	0.23			
7	Ccz1	DRSC08439	-0.41	0.11			
8	CG12479	DRSC19459	0.35	0.41			
9	rpr	DRSC11390	-0.65	-0.07			
10	HDAC11	DRSC14280	0.31	0.39			
11	CG12945	DRSC14573	0.02	-0.15			
12	CG17159 + CG17162	DRSC20899	-0.12	-0.07			
13	CG17159 + CG17162	DRSC20900	0.33	0.15			
14	ProRS-m	DRSC08261	0.38	0.22			
15	Or94b	DRSC16773	0.22	0.3			
16	mtSSB	DRSC17005	0.32	0.45			
17	pigeon	DRSC03565	0.28	0.28			
18	CG43393	DRSC03917	0.48	0.19			
19	Tsp42El	DRSC06186	0.31	0.39			
20	CG16739	DRSC06621	0.46	0.16			
21	Or46a + asRNA:CR43467	DRSC07489	0.37	0.4			
22	Or46a + asRNA:CR43467	DRSC07490	0.27	0.24			
23	Or46a + asRNA:CR43467	DRSC21590	1.59	0.14			
24	CG9801	DRSC16568	0.33	0.38			
25	CG8026	DRSC07055	0.4	0.29	-0.08	-0.17	
26	CG8026	DRSC07056	0.26	0.3			
27	CG6974	DRSC16160	0.26	0.29			
28	CG42271	DRSC19809	0.4	0.41			
29	CG42271	DRSC22894	-1	-0.48			
30	lwr	DRSC00828	0.09	0.26			
31	CG18258	DRSC19798	0.16	0.2			
32	MsR2	DRSC08336	0.32	0.42			
33	MsR2	DRSC08337	0.29	0.29			
34	MsR2	DRSC22440	-0.57	-0.13			
35	Ak1	DRSC10248	0.2	0.13			
36	CG10505	DRSC04075	0.04	0.36			
37	IFT52	DRSC03271	0.1	0.32			
38	Vps2	DRSC14886	-3.3	-4.18			reduced secretion
39	RpS28b	DRSC18258	-2.06	-1.93			reduced secretion
40	CG13097	DRSC02199	-0.36	0.2			
41	CG14492	DRSC06463	0.3	0.34			
42	Su(var)205	DRSC03446	0.4	0.28			
43	CG13558	DRSC04196	0.06	0.01			
44	CG15141	DRSC02441	0.36	0.2			
45	CG15141	DRSC02442	0.16	0.3			
46	Cpr65Ax2 + Cpr65Ax1	DRSC10341	0.35	0.45			
47	Cpr65Ax2 + Cpr65Ax1	DRSC10344	0.28	0.34			
48	CG14480	DRSC06452	0.31	0.37			
49	jtb	DRSC06868	0.28	0.22			
50	Nup43	DRSC16279	0.17	0.06			
51	Mekk1	DRSC16302	-0.31	-0.08			
52	Mekk1	DRSC16303	0.31	-0.02			
53	CG32428	DRSC11697	-0.6	-0.29			
54	CG32428	DRSC11768	0.23	0.34			
55	CG2070	DRSC06814	-0.17	-0.25			
56	CG32814	DRSC17670	0.4	0.4			
57	Spn75F	DRSC09589	-0.66	0.04			

Next part, starting with the last 3 of the part before.
no.	Target gene	amplicon	z-score, replicate 1	z-score, replicate 2	z-score, replicate 3	z-score, replicate 4	phenotype, replicate 1
55	CG2070	DRSC06814	-0.17	-0.25			
56	CG32814	DRSC17670	0.4	0.4			
57	Spn75F	DRSC09589	-0.66	0.04			
58	CG14340	DRSC00370	0.03	0.18			
59	CG11379	DRSC18629	0.53	0.35			
60	CG34268	DRSC07874	0.26	0.32			
61	Twdlbeta	DRSC07310	0.29	0.33			
62	CG9360	DRSC20180	0.24	0.31			
63	CG32409	DRSC08780	-1.98	0.32	-0.15	0.17	reduced secretion
64	kl-2	DRSC21136	0.19	0.1			
65	jef	DRSC06198	0.54	0.31			
66	Npc2a	DRSC00698	0.2	-0.04			
67	CG32188	DRSC09510	0.51	0.39			
68	shrb	DRSC07061	-2.56	-1.65			reduced secretion
69	pall	DRSC10364	0.26	-0.07			
70	VGlut	DRSC00733	0.54	0.12	0.41	0.13	
71	VGlut	DRSC21821	-0.91	0.08			
72	CG31955	DRSC00285	0.29	0.25			
73	Ace	DRSC12959	0.67	0.37			
74	Ace	DRSC14100	0.1	-0.1			
75	ATP6 (retired record)	DRSC21278	0.4	0.22			
76	CG3165	DRSC00573	0.08	0.43			
77	AANATL4	DRSC06774	0.08	-0.1			
78	CG14459	DRSC11719	-5	-3.87			reduced secretion
79	CG34007	DRSC01790	-0.06	0.28			
80	cv-c	DRSC14969	0.14	0.11			
81	cv-c	DRSC14970	0.54	0.27			
82	cv-c	DRSC14971	-0.09	-0.8			
83	cv-c	DRSC14972	0.46	0.63			
84	cv-c	DRSC14973	-2.22	-0.44			reduced secretion
85	cv-c	DRSC16428	0.61	0.84			
86	CG17224	DRSC00489	0.38	0.43			
87	CG5225	DRSC15742	0.27	0.39			
88	Traf-like	DRSC19894	0.44	0.27			
89	Trissin	DRSC14994	0.4	0.45			
90	vret	DRSC15640	0.35	0.3			
91	CG3860	DRSC04425	0.27	0.24			
92	CG14984	DRSC08442	0.17	0.2			
93	pins	DRSC17043	0.34	0.65			
94	CG14606	DRSC12550	0.19	0.42			
95	LManV	DRSC03223	0.26	0.26			
96	CG6788 + CR32496	DRSC22043	0.02	0.1			
97	qua	DRSC03598	0.18	0.45			
98	Bcat	DRSC19756	0.4	0.64			
99	CG14785	DRSC18604	0.35	0.18			
100	CG32276	DRSC08027	0.19	0.32			
101	PGAP5	DRSC03089	0.54	0.26			
102	CG14321	DRSC14800	0.29	-0.33			
103	CG7094	DRSC03005	0.25	0.18			
104	PXo	DRSC09734	0.23	0.23			
